Results on two molecules are retold here after article doi:10.1101/2020.06.30.180471.

The experiment has as its target T1, SFB-SPRTN full length (FL) (UniProt Q9H040).
T1 sequence: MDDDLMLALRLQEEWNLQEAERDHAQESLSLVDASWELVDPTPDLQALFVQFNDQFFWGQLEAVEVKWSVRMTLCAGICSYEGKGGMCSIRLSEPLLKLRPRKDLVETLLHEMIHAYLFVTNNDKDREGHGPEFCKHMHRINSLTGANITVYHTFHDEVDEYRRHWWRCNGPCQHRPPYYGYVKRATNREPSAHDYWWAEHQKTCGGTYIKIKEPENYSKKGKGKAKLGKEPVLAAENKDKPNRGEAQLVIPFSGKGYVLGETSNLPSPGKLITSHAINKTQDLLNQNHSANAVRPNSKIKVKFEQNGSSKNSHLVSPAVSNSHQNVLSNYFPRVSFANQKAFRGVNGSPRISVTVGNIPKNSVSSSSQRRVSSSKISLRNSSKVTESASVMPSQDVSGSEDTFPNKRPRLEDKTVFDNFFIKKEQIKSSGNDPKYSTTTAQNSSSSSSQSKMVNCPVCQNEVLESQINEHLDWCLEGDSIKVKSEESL
Put plainly: affinity purification with mass spectrometry.

These are yes or no findings as the source states them, for the method shown. Binding seen in cells or lysates may run through a third protein. A yes stands for co-enrichment or nearness to the bait. Other partners may have been found.

In the case of VCP (from UniProt P55072 1-806), the binding result is recorded as “binds”.

B1: POLD3 (protein, UniProt Q15054 1-466)
chain: MADQLYLENIDEFVTDQNKIVTYKWLSYTLGVHVNQAKQMLYDYVERKRKENSGAQLHVTYLVSGSLIQNGHSCHKVAVVREDKLEAVKSKLAVTASIHVYSIQKAMLKDSGPLFNTDYDILKSNLQNCSKFSAIQCAAAVPRAPAESSSSSKKFEQSHLHMSSETQANNELTTNGHGPPASKQVSQQPKGIMGMFASKAAAKTQETNKETKTEAKEVTNASAAGNKAPGKGNMMSNFFGKAAMNKFKVNLDSEQAVKEEKIVEQPTVSVTEPKLATPAGLKKSSKKAEPVKVLQKEKKRGKRVALSDDETKETENMRKKRRRIKLPESDSSEDEVFPDSPGAYEAESPSPPPPPSPPLEPVPKTEPEPPSVKSSSGENKRKRKRVLKSKTYLDGEGCIVTEKVYESESCTDSEEELNMKTSSVHRPPAMTVKKEPREERKGPKKGTAALGKANRQVSITGFFQRK
In the case of B1, the binding entry is “binds”.
